Data taken from patent US11058737B2, “Use of Euycoma longifolia extract in alleviating symptoms and/or conditions associated with hormonal imbalance in females” ([…] BERHAD, priority 2018, dated 2021).
At least one compound was matched to its structure with a doubt left.

Test system: ovariectomized rats
Experiment: Clinical signs of toxicity and mortality in ovariectomized rat model
Format: in vivo, Sprague Dawley rats
Conditions: 10 mg/kg intramuscular once every 4 weeks, 8 weeks
Method: 48 female Sprague dawley rats were ovariectomized or sham operated. Both sham and ovariectomized rats (n=8) received the vehicle. The remaining 3 group ovariectomized rats were orally administrated with Eurycoma longifolia aqueous extract 100 mg/kg, 300 mg/kg and 500 mg/kg b.w. The treatment continued for 8 weeks. Group 6 ovariectomized rats received testosterone undecanoate (10 mg/kg b.w) through the route of intramuscular injection once in every 4 weeks for 8 weeks. At week 8 of the last dose, sexual behaviors were recorded. Blood was collected for biochemical analysis. Calcium, phosphate, bone alkaline phosphatase (ALP), osteocalcin and hormone profile estimation was done. […]
In Group 2, only ovariectomy was performed. […] 30 gms feed was added daily to each animal in the morning time and leftover feed was recorded on next day from the same animal cage. […]

## CCCCCCCCCCC(=O)O[C@H]1CC[C@H]2[C@@H]3CCC4=CC(=O)CC[C@]4(C)[C@H]3CC[C@]12C [Testosterone undecanoate]
  Clinical Signs of Toxicity: N
